Values quoted from earlier work in patent US20230225964A1, “MICROSTIRRING DEVICES AND TECHNIQUES FOR ENHANCING BIOAVAILABILITY OF ORALLY ADMINISTERED DRUGS” (The Regents of the University of California, priority 2022, published 2023).
≈ marks a conversion by molar mass, not a printed value.

solubility in water: 3000 µg/mL (≈ 16.7 mM)
Structure (SMILES): CC(=O)Oc1ccccc1C(=O)O [ASA, acetylsalicylic acid]
